Measurements taken from the supplement of paper PMC10060354, “Discovery of a small molecule ligand of FRS2 that inhibits invasion and tumor growth” (Cellular Oncology, 2022).
Single values are uncertain, as repeats are few or missing.

Chains of the proteins cited; added tags and fusions are not shown. Lines headed by an entry give the natural chain unless they say otherwise; changes in a name come on top.
UniProt Q96E11: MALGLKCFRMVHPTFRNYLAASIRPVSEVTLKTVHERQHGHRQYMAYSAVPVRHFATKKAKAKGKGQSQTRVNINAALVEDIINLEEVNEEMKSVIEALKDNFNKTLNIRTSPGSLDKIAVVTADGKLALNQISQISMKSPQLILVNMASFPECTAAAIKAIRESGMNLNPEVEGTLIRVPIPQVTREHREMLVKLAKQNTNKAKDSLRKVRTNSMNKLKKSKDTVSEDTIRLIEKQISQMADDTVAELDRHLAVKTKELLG
UniProt P49755: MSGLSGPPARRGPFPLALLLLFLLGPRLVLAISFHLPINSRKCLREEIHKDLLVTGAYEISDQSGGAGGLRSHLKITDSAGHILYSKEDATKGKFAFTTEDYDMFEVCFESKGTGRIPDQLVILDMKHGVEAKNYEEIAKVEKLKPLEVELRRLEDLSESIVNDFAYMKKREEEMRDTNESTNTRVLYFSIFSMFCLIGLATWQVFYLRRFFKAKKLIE
UniProt O95400: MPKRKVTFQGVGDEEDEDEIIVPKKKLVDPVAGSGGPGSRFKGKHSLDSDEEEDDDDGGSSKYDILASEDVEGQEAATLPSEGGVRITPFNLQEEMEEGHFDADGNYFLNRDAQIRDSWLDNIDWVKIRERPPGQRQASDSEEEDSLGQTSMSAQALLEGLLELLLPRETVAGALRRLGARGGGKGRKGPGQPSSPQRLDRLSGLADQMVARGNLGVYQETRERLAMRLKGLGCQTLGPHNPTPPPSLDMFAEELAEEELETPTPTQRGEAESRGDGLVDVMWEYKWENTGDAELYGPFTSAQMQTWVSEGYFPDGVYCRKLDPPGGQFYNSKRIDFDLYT
UniProt Q15742: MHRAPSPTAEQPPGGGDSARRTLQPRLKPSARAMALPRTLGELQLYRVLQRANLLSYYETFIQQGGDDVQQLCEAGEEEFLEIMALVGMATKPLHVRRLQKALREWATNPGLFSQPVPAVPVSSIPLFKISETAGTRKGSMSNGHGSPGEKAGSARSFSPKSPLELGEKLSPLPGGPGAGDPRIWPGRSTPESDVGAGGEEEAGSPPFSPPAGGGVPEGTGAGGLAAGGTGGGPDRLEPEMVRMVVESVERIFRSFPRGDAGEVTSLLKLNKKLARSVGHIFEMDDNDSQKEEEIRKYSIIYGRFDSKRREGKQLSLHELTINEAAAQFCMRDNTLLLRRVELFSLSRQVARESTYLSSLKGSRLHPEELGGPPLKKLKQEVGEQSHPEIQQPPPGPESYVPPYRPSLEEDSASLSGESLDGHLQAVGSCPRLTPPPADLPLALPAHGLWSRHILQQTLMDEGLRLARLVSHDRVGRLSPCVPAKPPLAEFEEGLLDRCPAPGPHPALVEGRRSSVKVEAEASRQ
UniProt Q07065: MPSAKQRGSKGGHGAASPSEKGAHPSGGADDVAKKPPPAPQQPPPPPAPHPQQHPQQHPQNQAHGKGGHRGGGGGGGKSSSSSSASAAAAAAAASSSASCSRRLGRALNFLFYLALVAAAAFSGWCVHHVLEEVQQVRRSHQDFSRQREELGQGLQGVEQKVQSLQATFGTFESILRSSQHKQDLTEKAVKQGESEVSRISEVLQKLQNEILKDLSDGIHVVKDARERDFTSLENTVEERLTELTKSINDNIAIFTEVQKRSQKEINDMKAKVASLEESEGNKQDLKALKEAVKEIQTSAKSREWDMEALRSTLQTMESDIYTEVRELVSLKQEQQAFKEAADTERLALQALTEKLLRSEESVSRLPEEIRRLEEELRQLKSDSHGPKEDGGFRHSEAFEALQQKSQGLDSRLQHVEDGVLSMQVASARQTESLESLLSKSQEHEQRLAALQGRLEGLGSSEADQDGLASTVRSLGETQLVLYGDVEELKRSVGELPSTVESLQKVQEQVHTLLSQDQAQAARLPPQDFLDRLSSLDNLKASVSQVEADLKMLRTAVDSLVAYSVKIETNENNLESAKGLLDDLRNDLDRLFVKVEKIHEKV
UniProt Q9UNL2: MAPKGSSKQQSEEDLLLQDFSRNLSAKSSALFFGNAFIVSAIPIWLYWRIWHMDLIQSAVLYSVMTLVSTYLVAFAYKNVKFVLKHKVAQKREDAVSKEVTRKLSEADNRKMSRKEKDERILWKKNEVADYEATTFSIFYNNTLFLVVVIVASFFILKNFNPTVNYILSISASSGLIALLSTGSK
UniProt P15259: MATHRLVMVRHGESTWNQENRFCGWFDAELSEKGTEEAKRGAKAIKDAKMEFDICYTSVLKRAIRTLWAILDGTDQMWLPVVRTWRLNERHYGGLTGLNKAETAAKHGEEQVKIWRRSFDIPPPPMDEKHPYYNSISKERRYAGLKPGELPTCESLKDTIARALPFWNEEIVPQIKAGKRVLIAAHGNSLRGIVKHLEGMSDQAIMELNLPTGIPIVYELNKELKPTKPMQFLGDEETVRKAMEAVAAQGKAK
UniProt P38935: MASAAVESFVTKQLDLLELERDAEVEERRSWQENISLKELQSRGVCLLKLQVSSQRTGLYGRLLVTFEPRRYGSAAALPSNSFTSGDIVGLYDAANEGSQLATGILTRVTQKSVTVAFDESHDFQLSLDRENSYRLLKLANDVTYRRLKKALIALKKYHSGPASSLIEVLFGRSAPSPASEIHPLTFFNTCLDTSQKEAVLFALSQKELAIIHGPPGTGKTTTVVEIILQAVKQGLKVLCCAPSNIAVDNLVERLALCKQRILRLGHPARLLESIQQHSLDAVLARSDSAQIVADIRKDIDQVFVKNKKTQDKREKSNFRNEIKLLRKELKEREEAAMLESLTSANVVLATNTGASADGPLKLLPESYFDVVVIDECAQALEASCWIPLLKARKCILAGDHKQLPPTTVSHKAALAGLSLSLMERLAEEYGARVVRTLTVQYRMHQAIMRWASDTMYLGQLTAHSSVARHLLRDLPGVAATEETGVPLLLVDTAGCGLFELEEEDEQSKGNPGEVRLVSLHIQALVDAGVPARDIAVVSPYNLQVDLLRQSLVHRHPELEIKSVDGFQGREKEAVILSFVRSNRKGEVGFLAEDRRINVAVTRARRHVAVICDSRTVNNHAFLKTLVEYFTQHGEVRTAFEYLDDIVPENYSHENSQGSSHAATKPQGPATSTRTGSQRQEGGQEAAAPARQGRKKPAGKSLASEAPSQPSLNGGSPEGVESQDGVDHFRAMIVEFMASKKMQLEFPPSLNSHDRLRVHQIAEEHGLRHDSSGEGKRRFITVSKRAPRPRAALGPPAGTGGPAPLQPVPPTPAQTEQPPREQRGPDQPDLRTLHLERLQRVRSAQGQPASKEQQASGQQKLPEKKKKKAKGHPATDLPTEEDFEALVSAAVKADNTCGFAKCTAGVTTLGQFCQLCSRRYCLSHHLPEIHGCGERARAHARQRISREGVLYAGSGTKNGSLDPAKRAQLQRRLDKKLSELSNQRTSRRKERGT
UniProt P55263: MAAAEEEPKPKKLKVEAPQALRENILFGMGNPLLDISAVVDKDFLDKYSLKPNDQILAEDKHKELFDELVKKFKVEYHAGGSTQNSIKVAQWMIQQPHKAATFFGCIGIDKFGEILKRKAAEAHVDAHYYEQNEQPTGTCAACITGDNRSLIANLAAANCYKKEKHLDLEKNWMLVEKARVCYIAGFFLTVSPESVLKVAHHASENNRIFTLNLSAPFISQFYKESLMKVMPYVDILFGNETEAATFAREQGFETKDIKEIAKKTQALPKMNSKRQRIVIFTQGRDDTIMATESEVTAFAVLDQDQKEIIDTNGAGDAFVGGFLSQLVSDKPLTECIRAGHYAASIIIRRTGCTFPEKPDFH
UniProt P63208, whole entry: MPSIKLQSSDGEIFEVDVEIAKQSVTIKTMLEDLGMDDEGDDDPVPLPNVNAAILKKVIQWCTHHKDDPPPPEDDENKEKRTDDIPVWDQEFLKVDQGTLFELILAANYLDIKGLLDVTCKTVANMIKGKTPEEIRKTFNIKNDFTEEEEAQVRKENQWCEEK
UniProt Q8WV24: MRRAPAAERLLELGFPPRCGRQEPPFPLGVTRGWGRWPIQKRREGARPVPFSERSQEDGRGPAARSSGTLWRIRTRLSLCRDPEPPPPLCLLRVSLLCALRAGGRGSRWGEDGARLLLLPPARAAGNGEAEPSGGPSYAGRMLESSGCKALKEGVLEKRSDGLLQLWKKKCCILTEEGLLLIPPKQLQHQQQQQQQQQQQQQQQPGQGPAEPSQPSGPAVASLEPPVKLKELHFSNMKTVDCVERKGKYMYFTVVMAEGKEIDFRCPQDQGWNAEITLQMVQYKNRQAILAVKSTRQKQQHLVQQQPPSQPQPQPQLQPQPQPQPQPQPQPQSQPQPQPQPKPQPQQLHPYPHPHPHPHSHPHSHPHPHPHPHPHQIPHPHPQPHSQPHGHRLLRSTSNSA
UniProt P54868: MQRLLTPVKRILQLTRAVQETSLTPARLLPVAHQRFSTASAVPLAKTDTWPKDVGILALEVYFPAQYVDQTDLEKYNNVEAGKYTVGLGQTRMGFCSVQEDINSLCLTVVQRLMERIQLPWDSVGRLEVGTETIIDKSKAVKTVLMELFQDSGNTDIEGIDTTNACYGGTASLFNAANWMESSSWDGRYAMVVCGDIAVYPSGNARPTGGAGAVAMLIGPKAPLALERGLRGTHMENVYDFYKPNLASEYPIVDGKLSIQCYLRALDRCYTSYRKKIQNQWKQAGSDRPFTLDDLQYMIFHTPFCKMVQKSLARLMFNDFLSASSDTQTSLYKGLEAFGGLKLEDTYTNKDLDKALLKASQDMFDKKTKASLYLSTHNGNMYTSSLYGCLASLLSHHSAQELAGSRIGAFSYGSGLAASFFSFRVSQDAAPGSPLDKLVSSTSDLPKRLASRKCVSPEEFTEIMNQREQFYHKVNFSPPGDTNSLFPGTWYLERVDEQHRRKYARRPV
UniProt O95202: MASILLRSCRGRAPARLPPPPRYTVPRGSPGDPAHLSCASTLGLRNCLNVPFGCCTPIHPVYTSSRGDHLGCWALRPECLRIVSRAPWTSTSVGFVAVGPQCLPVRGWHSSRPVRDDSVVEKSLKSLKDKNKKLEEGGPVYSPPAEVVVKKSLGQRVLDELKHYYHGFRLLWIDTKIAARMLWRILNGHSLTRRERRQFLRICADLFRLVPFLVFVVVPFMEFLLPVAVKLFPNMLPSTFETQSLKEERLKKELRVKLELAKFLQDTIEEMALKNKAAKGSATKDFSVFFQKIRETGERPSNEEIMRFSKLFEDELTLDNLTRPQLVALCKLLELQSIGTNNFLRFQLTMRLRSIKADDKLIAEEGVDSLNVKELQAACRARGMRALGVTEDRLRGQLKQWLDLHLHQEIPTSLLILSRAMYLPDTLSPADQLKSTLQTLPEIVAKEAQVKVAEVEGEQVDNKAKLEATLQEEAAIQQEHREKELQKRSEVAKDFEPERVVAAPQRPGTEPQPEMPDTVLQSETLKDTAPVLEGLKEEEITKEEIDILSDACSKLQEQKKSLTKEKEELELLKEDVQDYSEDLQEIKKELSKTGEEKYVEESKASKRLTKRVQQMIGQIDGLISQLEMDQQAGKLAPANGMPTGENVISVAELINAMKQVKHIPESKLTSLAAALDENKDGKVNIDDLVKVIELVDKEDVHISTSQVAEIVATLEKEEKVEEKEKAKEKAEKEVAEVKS
UniProt Q15526: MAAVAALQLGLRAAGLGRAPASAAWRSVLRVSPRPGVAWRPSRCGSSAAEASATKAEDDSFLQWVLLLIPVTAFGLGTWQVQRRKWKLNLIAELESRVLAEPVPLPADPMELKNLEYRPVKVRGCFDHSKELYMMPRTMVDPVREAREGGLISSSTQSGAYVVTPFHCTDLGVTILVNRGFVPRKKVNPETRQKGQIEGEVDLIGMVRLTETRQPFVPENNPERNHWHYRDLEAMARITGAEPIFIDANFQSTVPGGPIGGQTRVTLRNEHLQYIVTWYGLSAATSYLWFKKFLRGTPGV
UniProt Q99986: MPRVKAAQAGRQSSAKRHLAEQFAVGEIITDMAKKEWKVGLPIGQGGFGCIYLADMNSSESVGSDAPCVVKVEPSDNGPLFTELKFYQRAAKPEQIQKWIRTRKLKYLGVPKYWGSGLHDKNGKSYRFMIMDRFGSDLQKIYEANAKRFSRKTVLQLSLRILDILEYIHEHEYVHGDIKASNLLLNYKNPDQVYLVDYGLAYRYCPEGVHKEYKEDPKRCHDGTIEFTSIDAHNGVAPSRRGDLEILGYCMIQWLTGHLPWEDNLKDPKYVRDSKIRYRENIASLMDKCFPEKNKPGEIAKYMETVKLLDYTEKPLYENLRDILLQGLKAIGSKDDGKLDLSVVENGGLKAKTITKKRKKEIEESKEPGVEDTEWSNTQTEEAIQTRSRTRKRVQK
UniProt Q14106: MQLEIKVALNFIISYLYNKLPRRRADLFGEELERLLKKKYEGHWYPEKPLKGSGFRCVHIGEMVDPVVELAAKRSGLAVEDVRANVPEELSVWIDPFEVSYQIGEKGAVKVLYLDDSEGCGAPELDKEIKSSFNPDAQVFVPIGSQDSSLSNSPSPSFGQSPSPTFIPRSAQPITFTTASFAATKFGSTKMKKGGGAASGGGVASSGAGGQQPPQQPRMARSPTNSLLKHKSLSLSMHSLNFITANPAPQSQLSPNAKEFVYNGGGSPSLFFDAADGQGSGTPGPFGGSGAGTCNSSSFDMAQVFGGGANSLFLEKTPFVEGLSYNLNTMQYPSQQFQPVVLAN

Compound: [O-][N+](C(C1=C(C(O)=C2)NC(C(C=C3)=CC=C3Cl)C4C1C=CC4)=C2Cl)=O
Experiment: melting temperature shift (compound 7 minus DMSO); higher = compound stabilises the protein
Conditions: 10 µM
Method: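 Thermal proteome profiling (TMT mass spectrometry) in intact DAOY medulloblastoma cells or DAOY lysates treated with 10 µM compound 7 or DMSO, heated at 10 temperatures from 40.5 to 73.8 °C for 3 min. Melting curves were fitted with the Bioconductor TPP package, and the melting point difference between compound and vehicle is reported per protein (single curve per condition).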

[1] = system: DAOY cell lysate, treatment time: 20 min, 4 °C
[2] = system: intact DAOY cells, treatment time: 90 min, 37 °C

With HERC2 (UniProt O95714) the melting temperature shift [1] was 0.0135 °C and the melting temperature shift [2] was 0.834 °C.
UniProt Q5SRH9 showed a melting temperature shift [2] of -0.8 °C.
In the case of CLSTN1 (UniProt O94985), the melting temperature shift [1] is reported as 0.973 °C.
MRRF (UniProt Q96E11) was tested, and the melting temperature shift [1] was 0.22 °C and the melting temperature shift [2] was -0.994 °C.
With TMED10 (UniProt P49755) the melting temperature shift [1] was 1.02 °C and the melting temperature shift [2] was -1.47 °C.
For UniProt Q8N8R5, the melting temperature shift [2] was 0.545 °C.
For CD2BP2 (UniProt O95400), the melting temperature shift [1] was -0.168 °C and the melting temperature shift [2] was 2.01 °C.
NAB2 (UniProt Q15742) gave a melting temperature shift [1] of -1.51 °C.
NOP58 (UniProt Q9Y2X3) was tested, and the melting temperature shift [1] was 0.913 °C and the melting temperature shift [2] was 1.25 °C.
EIF3M (UniProt Q7L2H7) gave a melting temperature shift [1] of -0.33 °C and a melting temperature shift [2] of 0.148 °C.
CKAP4 (UniProt Q07065) showed a melting temperature shift [1] of 1.51 °C and a melting temperature shift [2] of 1.09 °C.
With SSR3 (UniProt Q9UNL2) the melting temperature shift [1] was 1.8 °C and the melting temperature shift [2] was -1.99 °C.
UniProt Q71U36 showed a melting temperature shift [1] of 0.289 °C and a melting temperature shift [2] of -0.497 °C.
Work on SACS (UniProt Q9NZJ4) yielded a melting temperature shift [1] of 0.869 °C and a melting temperature shift [2] of 1.31 °C.
Target CAND1 (UniProt Q86VP6) has a melting temperature shift [1] of -1.48 °C and a melting temperature shift [2] of -0.375 °C.
FASTKD1 (UniProt Q53R41) showed a melting temperature shift [2] of -0.464 °C.
With UniProt O14972 the melting temperature shift [1] was -0.923 °C and the melting temperature shift [2] was -0.838 °C.
UniProt P15259 gave a melting temperature shift [2] of -1.18 °C.
For UniProt Q99972, the melting temperature shift [2] was 0.799 °C.
UniProt Q9BWQ6 gave a melting temperature shift [1] of -0.997 °C.
UniProt Q5VUB5 was tested, and the melting temperature shift [1] was -0.166 °C.
For IGHMBP2 (UniProt P38935), the melting temperature shift [1] was -2.2 °C and the melting temperature shift [2] was 0.242 °C.
For ADK (UniProt P55263), the melting temperature shift [1] was -0.546 °C and the melting temperature shift [2] was -1.73 °C.
With CAMKK1 (UniProt Q8N5S9) the melting temperature shift [1] was -0.883 °C.
Work on MRPS18B (UniProt Q9Y676) yielded a melting temperature shift [1] of 0.717 °C and a melting temperature shift [2] of -0.967 °C.
SKP1 (UniProt P63208) showed a melting temperature shift [1] of -0.63 °C.
With UniProt Q9UBF1 the melting temperature shift [1] was -2.12 °C and the melting temperature shift [2] was 0.935 °C.
With AAMP (UniProt Q13685) the melting temperature shift [1] was -0.701 °C and the melting temperature shift [2] was 1.39 °C.
Target XIAP (UniProt P98170) has a melting temperature shift [1] of 0.192 °C and a melting temperature shift [2] of 1.14 °C.
In the case of STX10 (UniProt O60499), the melting temperature shift [1] is reported as -0.808 °C and the melting temperature shift [2] is reported as 2.03 °C.
MED17 (UniProt Q9NVC6) was tested, and the melting temperature shift [1] was 0.334 °C and the melting temperature shift [2] was 1.04 °C.
UniProt O14983 showed a melting temperature shift [2] of -0.873 °C.
MGAT2 (UniProt Q10469) showed a melting temperature shift [1] of 1.46 °C and a melting temperature shift [2] of -1.77 °C.
Work on ADSS (UniProt P30520) yielded a melting temperature shift [1] of -0.508 °C and a melting temperature shift [2] of 0.755 °C.
Target EGFR (UniProt P00533) has a melting temperature shift [1] of 1.87 °C and a melting temperature shift [2] of -1.3 °C.
In the case of ARCN1 (UniProt P48444), the melting temperature shift [1] is reported as -0.312 °C and the melting temperature shift [2] is reported as 0.171 °C.
With TRRAP (UniProt Q9Y4A5) the melting temperature shift [1] was 0.519 °C and the melting temperature shift [2] was 0.152 °C.
Target SMTN (UniProt P53814) has a melting temperature shift [1] of -0.443 °C and a melting temperature shift [2] of -0.868 °C.
UniProt Q8WV24 was tested, and the melting temperature shift [1] was -0.585 °C and the melting temperature shift [2] was 0.209 °C.
For UniProt Q5VZF2, the melting temperature shift [1] was -1.29 °C and the melting temperature shift [2] was -0.547 °C.
In the case of UniProt P54868, the melting temperature shift [2] is reported as -1.43 °C.
C1QBP (UniProt Q07021) gave a melting temperature shift [1] of 1.42 °C and a melting temperature shift [2] of -0.21 °C.
In the case of UniProt Q9Y3L3, the melting temperature shift [2] is reported as -0.914 °C.
In the case of LETM1 (UniProt O95202), the melting temperature shift [1] is reported as 1.24 °C and the melting temperature shift [2] is reported as 0.0445 °C.
UniProt A8K0Z3 gave a melting temperature shift [2] of 0.47 °C.
Target PURA (UniProt Q00577) has a melting temperature shift [1] of -1.74 °C and a melting temperature shift [2] of -0.265 °C.
UniProt P15822 showed a melting temperature shift [1] of -1.9 °C.
For AK2 (UniProt P54819), the melting temperature shift [1] was -0.0984 °C and the melting temperature shift [2] was -1.32 °C.
UniProt P51513 was tested, and the melting temperature shift [2] was -0.99 °C.
SURF1 (UniProt Q15526) showed a melting temperature shift [1] of 0.663 °C and a melting temperature shift [2] of -0.427 °C.
Work on TCEA1 (UniProt P23193) yielded a melting temperature shift [1] of -1.04 °C and a melting temperature shift [2] of -0.166 °C.
For VRK1 (UniProt Q99986), the melting temperature shift [1] was -0.0702 °C and the melting temperature shift [2] was -0.493 °C.
For GLG1 (UniProt Q92896), the melting temperature shift [1] was 2.06 °C and the melting temperature shift [2] was 2.7 °C.
Target UniProt Q14106 has a melting temperature shift [1] of -0.999 °C and a melting temperature shift [2] of 3.12 °C.
GPAT4 (UniProt Q86UL3) showed a melting temperature shift [1] of 2 °C and a melting temperature shift [2] of -0.791 °C.
With SKP2 (UniProt Q13309) the melting temperature shift [1] was -1.64 °C.
CD46 (UniProt P15529) gave a melting temperature shift [2] of 0.514 °C.
With UniProt Q92959 the melting temperature shift [1] was 3.17 °C and the melting temperature shift [2] was -2.5 °C.
